Assay results taken from PMC12172431.
Results are given in words; binding and its absence hold for the method and conditions named. In cells and extracts the contact can be indirect. For some of these results: Binding calls can cover weak binding; strength is not graded here. For some of these results: Where a sequence is shown, tags or fusion partners need not be part of it.

Legend:
Ac51 (AcMNPV) = biological target: T1, Ac51 (AcMNPV) (UniProt P41455); assay: co-IP; Sf9 cells infected with vAcWT^Ac66Flag or vAcWT^EXON0Flag (MOI 5), 48 h p.i.; lysate on Flag-conjugated magnetic beads, or anti-Ac51 antibody with protein A/G agarose, 4°C overnight; IgG control; western blot
T1 sequence: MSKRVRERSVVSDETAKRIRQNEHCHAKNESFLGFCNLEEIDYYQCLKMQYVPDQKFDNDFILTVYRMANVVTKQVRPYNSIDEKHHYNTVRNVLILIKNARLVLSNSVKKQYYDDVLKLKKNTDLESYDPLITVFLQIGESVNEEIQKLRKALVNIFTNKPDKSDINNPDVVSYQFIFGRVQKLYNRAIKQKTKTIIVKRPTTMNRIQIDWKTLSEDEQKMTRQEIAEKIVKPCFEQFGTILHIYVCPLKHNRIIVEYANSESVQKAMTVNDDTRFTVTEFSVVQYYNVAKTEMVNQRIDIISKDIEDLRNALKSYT

[1] = biological target: T2, Flag-tagged Ac66 (AcMNPV) (UniProt P41467); assay: co-IP; Sf9 cells co-transfected with bacmid DNA of vAc51ΔDnaJ, vAc51ΔRRM or vAc51ΔCC and pUC18-Ac66Flag; lysate on anti-Flag or IgG magnetic beads; western blot
T2 sequence: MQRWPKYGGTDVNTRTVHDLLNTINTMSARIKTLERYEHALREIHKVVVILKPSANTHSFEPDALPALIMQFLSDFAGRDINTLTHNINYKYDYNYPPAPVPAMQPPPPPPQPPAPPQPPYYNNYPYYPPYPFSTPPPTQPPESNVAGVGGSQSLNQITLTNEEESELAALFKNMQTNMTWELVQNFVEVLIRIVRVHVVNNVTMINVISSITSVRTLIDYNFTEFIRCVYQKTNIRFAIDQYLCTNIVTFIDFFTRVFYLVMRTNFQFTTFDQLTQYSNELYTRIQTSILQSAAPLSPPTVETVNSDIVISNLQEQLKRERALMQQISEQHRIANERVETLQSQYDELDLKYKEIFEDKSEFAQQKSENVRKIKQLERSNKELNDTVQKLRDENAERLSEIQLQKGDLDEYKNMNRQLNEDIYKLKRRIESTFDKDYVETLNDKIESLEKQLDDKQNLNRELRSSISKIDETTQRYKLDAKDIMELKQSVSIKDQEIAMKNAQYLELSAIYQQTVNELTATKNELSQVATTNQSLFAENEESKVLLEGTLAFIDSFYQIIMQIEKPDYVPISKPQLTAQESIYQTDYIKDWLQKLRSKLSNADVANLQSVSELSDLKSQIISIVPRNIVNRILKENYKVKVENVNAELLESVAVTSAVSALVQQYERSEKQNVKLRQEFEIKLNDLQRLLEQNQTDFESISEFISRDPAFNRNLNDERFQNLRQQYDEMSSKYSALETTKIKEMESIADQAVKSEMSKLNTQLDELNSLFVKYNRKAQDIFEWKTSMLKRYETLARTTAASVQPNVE

| Substance | binding (Ac51 (AcMNPV)) | binding [1] |
| --- | --- | --- |
| Flag-tagged EXON0 (AcMNPV) | no binding | – |
| Ac51ΔDnaJ (AcMNPV) (domain or fragment) | – | binds weakly |
| Ac51ΔRRM (AcMNPV) (domain or fragment) | – | binds |
| Ac51ΔCC (AcMNPV) (domain or fragment) | – | binds |
